No constants are given. Whether binding was seen depends on the method and setting. Some binding calls cover weakened binding; strength is not graded here.

Here are results for 2 molecules from patent US20050048477A1 (published 2005).

The target in assay [1] is T1, plasma membrane targeted Cna1p (Myr-Cna1) (yeast) (UniProt P23287).
T1 sequence (chain, N-myristoylation at the N-terminal signal): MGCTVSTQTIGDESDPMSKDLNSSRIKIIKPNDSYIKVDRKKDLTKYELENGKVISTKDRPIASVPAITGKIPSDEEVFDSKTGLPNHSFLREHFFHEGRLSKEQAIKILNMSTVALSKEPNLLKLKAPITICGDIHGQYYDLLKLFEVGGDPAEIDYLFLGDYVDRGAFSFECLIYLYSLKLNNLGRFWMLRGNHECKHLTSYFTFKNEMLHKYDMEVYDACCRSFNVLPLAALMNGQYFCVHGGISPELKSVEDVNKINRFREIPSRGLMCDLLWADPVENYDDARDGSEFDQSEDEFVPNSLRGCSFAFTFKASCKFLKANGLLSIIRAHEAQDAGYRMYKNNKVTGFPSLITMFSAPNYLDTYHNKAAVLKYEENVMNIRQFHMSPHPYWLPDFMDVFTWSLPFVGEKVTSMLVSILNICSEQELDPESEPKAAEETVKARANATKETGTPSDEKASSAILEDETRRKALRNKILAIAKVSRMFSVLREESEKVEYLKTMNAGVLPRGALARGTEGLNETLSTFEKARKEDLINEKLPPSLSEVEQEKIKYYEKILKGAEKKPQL
In words: 80-Trap assay in yeast, HIS3 reporter growth; interaction elicited by FK506 at 0.25 µg/mL.

In assay [2] the target is T2, Myr-TAF145 (UniProt P46677).
T2 sequence (chain, N-myristoylation at the N-terminal signal): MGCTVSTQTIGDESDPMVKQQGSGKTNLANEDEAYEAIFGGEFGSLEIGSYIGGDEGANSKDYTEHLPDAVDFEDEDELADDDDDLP
In words: 80-Trap assay in yeast, HIS3 reporter growth without galactose.

Turning to “Gal80-Fpr1p fusion (from UniProt P04387 1-435; P20081 1-114)”, in assay [1], the binding entry was “binds”.

B1: Gal80-TBP (protein, UniProt P04387 1-435, looked up)
chain: MDYNKRSSVSTVPNAAPIRVGFVGLNAAKGWAIKTHYPAILQLSSQFQITALYSPKIETSIATIQRLKLSNATAFPTLESFASSSTIDMIVIAIQVASHYEVVMPLLEFSKNNPNLKYLFVEWALACSLDQAESIYKAAAERGVQTIISLQGRKSPYILRAKELISQGYIGDINSIEIAGNGGWYGYERPVKSPKYIYEIGNGVDLVTTTFGHTIDILQYMTSSYFSRINAMVFNNIPEQELIDERGNRLGQRVPKTVPDHLLFQGTLLNGNVPVSCSFKGGKPTKKFTKNLVIDIHGTKGDLKLEGDAGFAEISNLVLYYSGTRANDFPLANGQQAPLDPGYDAGKEIMEVYHLRNYNAIVGNIHRLYQSISDFHFNTKKIPELPSQFVMQGFDFEGFPTLMDALILHRLIESVYKSNMMGSTLNVSNISHYSLMADEERLKEFKEANKIVFDPNTRQVWENQNRDGTKPATTFQSEEDIKRAAPESEKDTSATSGIVPTLQNIVATVTLGCRLDLKTVALHARNAEYNPKRFAAVIMRIREPKTTALIFASGKMVVTGAKSEDDSKLASRKYARIIQKIGFAAKFTDFKIQNIVGSCDVKFPIRLEGLAFSHGTFSSYEPELFPGLIYRMVKPKIVLLIFVSGKIVLTGAKQREEIYQAFEAIYPVLSEFRKM
Turning to B1, in assay [2], the binding result is on record as “binds”.
